Data taken from patent publication US20230382991A1.
Results are given in words; binding and its absence hold for the method and conditions named. A result given as binding can be weak or reduced; the word gives no strength.

Molecular target: cynomolgus macaque LILRB1 on dendritic cell subsets of injected macaques (cynomolgus macaque)
Assay: ex vivo staining of blood pDC of the injected macaque with Alexa 647-labelled B1.2.2 (clone 20G10); y axis '% of positive cells'

binding: binds
B1: B1.2.2 monoclonal antibody (antibody, V domains shown)
VH: EVQLVESGGGLVKPGGSLKLSCAASGFTFSDYGMHWVRQAPEKGLEWVAYISSGSSTSYYADTVKGRFTISRDDAKNTLFLQMTSLRSEDTAMYYCARPGSNWDVYYAMDYWGQGTSVTVSS
VL: DIVLTQSPASLAVSLGQRATISCRASQSVSTSSYSYMHWYQQKPGQPPKLLIKNASNLESGVPARFSGSGSGTDFTLNIHPVEEEDTATYYCQHSWEIPFTFGGGTKLEIK
